According to patent US20080213341A1, “Butyric Acid Esters of Carbohydrates and Carbohydrate Polyols” (priority 2005, published 2008):
Some results were stated once for a whole list of compounds, not compound by compound.

Test system: intestinal bacteria of the human large intestine
Assay: In vitro fermentation with intestinal bacteria of the human large intestine (feces suspension)
Format: in vitro ADME
Conditions: 0.5% (w/v) substrate, 37° C., 72 h, listed as tributyrylxylitol
Procedure: It was investigated in in vitro fermentation experiments with intestinal bacteria of the human large intestine whether butyric acid esters listed above are hydrolyzed and metabolized by bacteria of the large intestine or their enzymes and butyrate is released in the […]. The following medium was used for in vitro fermentation experiments: [table] 9 ml of the […] medium described above were treated with 0.5% (w/v) of the butyric acid ester to be tested and 0.2% (w/v) of taurocholic acid. This medium was subsequently inoculated with 1 ml of a 10% strength feces suspension (mixed feces of three subjects) in anaerobic 50 mmol/l phosphate buffer, pH 7.0, to which 0.5 g/l of cysteine/HCl had been added as a reductant. Hungate tubes were incubated at 37° C. with shaking for 72 h, samples were taken at different times and these were investigated for short-chain fatty acids, lactic acid and pH. The extent of the metabolization of the test substances was carried out by means of the determination of the release of butyrate.

**Q.** For Tributyrylxylitol, which “g of butyrate/g of substrate” value is on record?
**A.** up to 0.7 g of butyrate/g of substrate
